For 66 sequences, z-score results are on record in PubChem BioAssay AID1347423 (Functional Genomics Laboratory (NCATS/FGL), 2020).

The campaign covered roughly 52,000 sequences. About 210 (0.4%) were called active.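 Rule for the calls: active = gene whose silencing raises cell survival under the drug, median off-target-corrected z-score across its silencing RNAs 2 or more; inactive = the rest.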 This is one part of the list.

The nature of the assay: Resistance to Poly (ADP-Ribose) Polymerase inhibitor: Gene Identification via Genome-wide siRNA Screen. Conditions: mouse BRCA2 R2336H ES cells, olaparib, CellTiter-Glo viability; hits give high values. An outline of the steps:
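Genome-wide siRNA screen (3 siRNAs/gene, 20 nM) in mouse ES cells carrying hypomorphic BRCA2 R2336H; olaparib 500 nM added 48 h post-transfection, CellTiter-Glo viability 72 h later. Normalized to plate-median negative control; MAD z-scores, gene median, seed-adjusted.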
On the technique in general: ATP-based viability assays read luminescence as a measure of living cells.
For “GGUUCUCAUACAUAAACAATT against 2410018C20Rik”, the z-score is inactive: 1.72.
In the case of GGAAGAUGGGCGACUCUAUTT against AW209059 it was inactive: -2; in that of GGAUGGGUUUGAUCUUAAUTT against Il13ra2, inactive: -0.495; in that of GGGAAGAAAGACUCAAACUTT against Dcdc2, inactive: 1.12.
GGUAGACUCUAGAUUAAGATT against Srrm2: the z-score is inactive: -0.841.
For the sequence “GCAAACGACUGUGACAAAATT against 2010109I03Rik”, the z-score is inactive: -0.0965.
Take GCCAUUUUGCGUGUGGCACTT against Rutbc3: the z-score is inactive: 1.72.
With CCCUGCUUAACAAACCAACTT against Ggcx the figure was inactive: 0.0222; with CGAUUGGAAUGACCGAGAGTT against Ars2, inactive: 0.331.
In the case of “GUGUAAGAUCUGACACUUUTT against 4833428E21Rik” it was inactive: 0.0682; in that of GCAGAGGAUUGAUGCACACTT against LOC235779, inactive: -1.08; in that of GCCCAAACUAAAUAAAGGATT against Il1r2, inactive: 0.935.
Turning to GCUCAUCGGAGAGUUCUAUTT against Ube2h, the z-score is inactive: 1.41.
With “GCCCAUUGUAAGAGUAACUTT against 4930588M11Rik” the figure was inactive: 0.881.
As for “CCGGGAUGGAGAAUAAGCUTT against 2610306H15Rik”, the z-score was inactive: 0.679.
Consider GCCUUAUAUAGCAACAUACTT against Slc25a3, for which the z-score was inactive: -0.243.
On to GAAAUGAGUCCUUGAAAAGTT against Olfr127, for which the z-score is inactive: 0.198.
Take GGUAAAUGUCUGCUCUGAGTT against Selk: the z-score is inactive: -0.626.
In the case of CCACUUGGUGCUAAAAAAATT against Frag1 it was inactive: -0.177; in that of GGUCAUCGAAUCUGGAGUATT against BC027061, inactive: 0.057; in that of “GGAUUUGAUGAUCUUUCCUTT against 5730458D16Rik”, inactive: -1.2.
Turning to CCUCAUAGAAUGAACAUGATT against Timp3, the z-score was inactive: -1.97.
For the sequence GCCAUUUCUUAUCAAGUGGTT against Laptm4a, the z-score is inactive: 0.24.
With GGGAUAUUCACUUUUGUAGTT against Arnt, the z-score was inactive: 0.553.
For the sequence CGUAGGUUGUAAUGGUGGCTT against BC051665, the z-score was inactive: -1.77.
Turning to GGUAAAUCAAAUCACUGCCTT against Slamf1, the z-score is inactive: 1.2.
With “GGAAGUUUGUUCAUCCCACTT against D6Ertd253e”, the z-score is inactive: 1.52.
Regarding “GCAUAAAGGAAUUGAUUCCTT against C330011K17Rik”, the z-score is inactive: 0.495.
Consider GGAGAUCUUCAAGAAUUCATT against Entpd5, for which the z-score is inactive: 0.275.
On to GGCCAGAUCACCAAGAUUCTT against Wdr40a, for which the z-score was inactive: 2.15.
Consider GGACUGAAGAAGUGUGUGGTT against Scgb3a2, for which the z-score was inactive: -2.67.
With CCAUGCUUCCCUUCAACAUTT against Adcy2 the figure was inactive: 0.618; with GGACCAUGAAGAGGAUCCUTT against Gja7, inactive: 0.129.
Take “CCUGGGUCAAACAAAAAAGTT against 3110001I22Rik”: the z-score is inactive: 0.852.
In the case of GGUUUCCAUAUUUGGAUCCTT against Dhx40 it was inactive: 0.64.
Take GCUAAUUUAUCCAAAGCCCTT against BC030335: the z-score is inactive: 0.743.
On to GGUCUUGUCGAUGUUCGCATT against Abhd6, for which the z-score was inactive: 2.06.
Turning to “GGAGCAACAGAAAAAGUGATT against 1110063F24Rik”, the z-score is inactive: 0.624.
On to GCGGUUUCUCCUUGGUAAATT against Ankmy1, for which the z-score was inactive: -0.0337.
With GGCCAAGUAGCCAUGGGAUTT against Lyl1, the z-score is inactive: -1.32.
Consider GGUUGAACUCAAAGUAAAGTT against Preb, for which the z-score is inactive: 0.0884.
In the case of GCUUAUUUGAAGUCUCAUGTT against Cpa5 it was inactive: 0.317.
In the case of GGGUGUUGUGUCCUCUCAATT against Gckr it was inactive: 0.033; in that of “CCGGCACACCAUUGAUUUCTT against 4931428F04Rik”, inactive: -0.492; in that of GGAAACACUAAAGUCAUUUTT against Gabrg1, inactive: -1.18.
Consider “GGGUAAAAUCAGUGAACCUTT against 1810031K02Rik”, for which the z-score was inactive: -1.51.
Turning to “CGAGGAUUUCGAUUCCAUUTT against 4933405K18Rik”, the z-score is inactive: -0.0374.
GGUUAUAGAAUGCUUGAUUTT against Rttn: the z-score was inactive: 0.0468.
On to GCAUGUAUGUGUCGAUAAUTT against Slc33a1, for which the z-score was inactive: 0.411.
In the case of CGACUUUGGACAAAAAUUGTT against Fbxl11 it was inactive: 0.984; in that of GGACAUCUUCUCCGAUAUCTT against Tgfbr2, inactive: -0.674.
With GGCUUUAUGCAUCAGUUAATT against AI507211 the figure was inactive: 0.589; with GCUCAAGGACUUACGCAACTT against BC030314, inactive: 0.155; with GGAGUGGAGUGAUUUCAGATT against Pdcd6, inactive: -1.84.
With GGUUCAAAACCAAGAGUGUTT against Ahi1 the figure was inactive: 0.849.
On to “GGAAAAAGAAGUCCACACATT against 1700016D06Rik”, for which the z-score is inactive: -0.802.
As to GGACACUAUCCGUGCAUCUTT against Tsg101, the z-score was inactive: 0.374.
Turning to “CGUGGGUAGAUCCACAUUUTT against 9030611K07Rik”, the z-score is inactive: -2.61.
With GGAAGAUGAGAAAAUUCCATT against Ccni the figure was inactive: -0.436.
In the case of GCUAUUGCCUUAGAUCCAUTT against Lrp6 it was inactive: 0.652.
Regarding GGUGCAGAAGAUGUGGAUGTT against Cldn1, the z-score was inactive: -1.18.
As for “GGACCUUCAGAAGCUGAUCTT against 2610528E23Rik”, the z-score is inactive: 1.39.
Take GCCAUUCUUCUCUUAGAAGTT against Npepl1: the z-score was inactive: -0.0973.
Regarding GGCUCCAUAUGGAAUGCAGTT against Ets2, the z-score is inactive: 0.401.
For GGUAGCUAGAGAACUCUAUTT against Za20d1, the z-score was inactive: -0.824.
GGAUUAGAGGCUAAGGCAGTT against D10Bur2e: the z-score is inactive: -2.08.
